The source of these data is publication PMC4999599.

For at least one entry, the source does not settle the construct or the ends of the probe. For part of these data: Weaker means in comparison with the reference protein, sequence or condition of that experiment. For part of these data: At least one verdict rests on a figure or table, not on a statement of the authors.

The subject of data set [1] is GST-PcVelA full length (Penicillium chrysogenum). As to the kind of experiment: EMSA. As to conditions: EMSA: 3.5-7.0 fmol probe, 2 µl binding buffer (250 mM Tris-HCl pH 8.0, 1 M KCl, 50% glycerol) in 20 µl (about 25 mM Tris, 100 mM KCl, 5% glycerol), 1 µg poly(dI-dC); recombinant protein; protein details: GST; label: 5'-32P.
Data set [2] deals with GST-PcVelA1-256 (Penicillium chrysogenum). As to the kind of experiment: EMSA. To be noted: EMSA: 3.5-7.0 fmol probe, 2 µl binding buffer (250 mM Tris-HCl pH 8.0, 1 M KCl, 50% glycerol) in 20 µl (about 25 mM Tris, 100 mM KCl, 5% glycerol), 1 µg poly(dI-dC); recombinant protein; protein details: GST; label: 5'-32P. (In general: A gel shift assay detects complexes by their altered migration in electrophoresis.)

Take “TCCGACAGCCTGGTACGGGAAACCTTGGAACCCATTCCAAATCGGTCTG (double strand) [PcLlmA_4]”: the binding result in data set [1] and in data set [2] was “binds” in each case.
On to “TAGCGTCATTTATTTTTTTCTTCCAAGGTTTTTCCCTCTTCTTCGGAGT (double strand) [PcLlmA_2]”, for which the binding result in data set [1] and in data set [2] was “binds” each time.
Take “TAGCGTCATTTATTTTTTTCCTTCAGAGTTTTTCCCTCTTCTTCGGAGT (double strand) [PcLlmA_2_m]”: in data set [2], the binding result is on record as “binds more weakly”.
Still for that read-out and setting: the same measure for “TCCGACAGCCTGGTACGGGAAACTCTGAAGCCCATTCCAAATCGGTCTG (double strand) [PcLlmA_4_m]”: “binds more weakly”.
